Source: the supplement of paper PMC6331611
± gives the standard deviation of the averaged measurements. The full ranking holds about 1,600 compounds; the median of “normalized growth (OD600, IQM-normalized) in LPM” is about 1, and the lowest 2% start at about 0.014. The list shows a part of the results.

What follows are molecules tested on Salmonella enterica serovar Typhimurium SL1344 (assay: normalized growth (OD600, IQM-normalized) in LPM (fraction of plate interquartile mean); higher = more bacterial growth (less inhibition)). Conditions: LPM pH 5.8; 10 µM; 16 h.

| Compound | normalized growth |
| --- | --- |
| CN[C@@H]1[C@H](O)[C@H](NC)[C@H]2O[C@@]3(O)C(=O)C[C@@H](C)O[C@H]3O[C@@H]2[C@H]1O | 0.972 ± 0.042 |
| NS(=O)(=O)c1cc2c(cc1Cl)NC(C(Cl)Cl)NS2(=O)=O (stereo not drawn) | 0.94 ± 0.12 |
| CCCCCCCCCCCCCCCCCCCCCCO | 1.11 ± 0.1 |
| CC(=O)NC(Cc1ccccc1)C(=O)O (stereo not drawn) | 0.957 ± 0.064 |
| COc1ccc(O)cc1 | 0.93 ± 0.038 |
| CCCCCCOC(=O)NC(=N)c1ccc(NCc2nc3cc(C(=O)N(CCC(=O)OCC)c4ccccn4)ccc3n2C)cc1 | 0.957 ± 0.054 |
| NCCCC(=O)O [gamma-AMINOBUTYRIC ACID] | 0.983 ± 0.046 |
| C[C@@H]1NC(=O)[C@@H](N)CNC(=O)[C@H](C2CCNC(=N)N2)NC(=O)/C(=C/NC(N)=O)NC(=O)[C@H](CNC(=O)CC(N)CCCN)NC1=O.N=C1NCC[C@H]([C@@H]2NC(=O)/C(=C/NC(N)=O)NC(=O)[C@H](CNC(=O)C[C@@H](N)CCCN)NC(=O)[C@H](CO)NC(=O)[C@@H](N)CNC2=O)N1 | 0.985 ± 0.046 |
| CC12CCC(CC1=O)C2(C)C (stereo not drawn) | 0.973 ± 0.024 |
| CN[C@@H]1[C@@H](O[C@H]2O[C@H](CO)[C@@H](N)[C@H](O)[C@H]2O)OC2C[C@@H](N)[C@@H](O[C@H]3[C@H](O)[C@@H](O)[C@H](N)C[C@@H]3N)OC2[C@@H]1O (stereo partly drawn) | 1.08 ± 0.042 |
| O=C(O)CCNC(=O)c1ccccc1 | 1.1 ± 0.049 |
| O=C(N[C@H](CO)[C@H](O)c1ccc([N+](=O)[O-])cc1)C(Cl)Cl | 0.0146 ± 0.00075 |
| CCC[C@@H]1C[C@@H](C(=O)N[C@@H]([C@H]2O[C@H](SC)[C@H](O)[C@@H](O)[C@H]2O)[C@H](C)Cl)N(C)C1 | 1.18 ± 0.03 |
| C[n+]1c2cc(N)ccc2cc2ccc(N)cc21 | 0.862 ± 0.023 |
| CC1=NN(c2ccccc2)C(=O)C1 | 0.902 ± 0.026 |
| Cn1cnc2c1c(=O)[nH]c(=O)n2C | 0.992 ± 0.019 |
| CC(C)(CO)C(O)C(=O)NCCCO (stereo not drawn) | 0.985 ± 0.02 |
| CCOc1ccc2ccccc2c1C(=O)N[C@@H]1C(=O)N2[C@@H]1SC(C)(C)[C@@H]2C(=O)O | 0.96 ± 0.074 |
| CCN(CC)CCNC(=O)c1cc(Cl)c(N)cc1OC | 1.11 ± 0.024 |
| OCc1cccnc1 | 1.22 ± 0.021 |

| Compound | normalized growth |
| --- | --- |
| CC(C)[N+](C)(CCOC(=O)C1c2ccccc2Oc2ccccc21)C(C)C | 1.037 ± 0.0044 |
| CN1CCC[C@@H]1Cc1c[nH]c2ccc(CCS(=O)(=O)c3ccccc3)cc12 | 0.907 ± 0.065 |
| CN(C)CCC=C1c2ccccc2COc2ccccc21 | 1.08 ± 0.054 |
| Cc1cccc(C)c1OCC(C)N (stereo not drawn) | 1.07 ± 0.054 |
| CN1[C@@H]2CC[C@H]1C[C@@H](OC(=O)c1c[nH]c3ccccc13)C2 | 1.09 ± 0.077 |
| CC(=O)[C@H]1CC[C@H]2[C@@H]3C=CC4=CC(=O)CC[C@@]4(C)[C@@H]3CC[C@]12C | 1.04 ± 0.014 |
| Cc1cc(=O)[nH]c(=S)[nH]1 | 1.16 ± 0.029 |
| COc1ccccc1OCC(O)CO (stereo not drawn) | 1.01 ± 0.042 |
| CC[C@]1(O)C[C@H]2CN(CCc3c([nH]c4ccccc34)[C@@](C(=O)OC)(c3cc4c(cc3OC)N(C=O)[C@H]3[C@@](O)(C(=O)OC)[C@H](OC(C)=O)[C@]5(CC)C=CCN6CC[C@]43[C@@H]65)C2)C1 | 1.03 ± 0.037 |
| NC[C@@H]1O[C@H](O[C@H]2[C@@H](O)[C@H](O[C@@H]3[C@@H](O)[C@H](N)C[C@H](N)[C@H]3O[C@H]3O[C@H](CO)[C@@H](O)[C@H](O)[C@H]3N)O[C@@H]2CO)[C@H](N)[C@@H](O)[C@@H]1O | 1.07 ± 0.027 |
| Cc1c(N(C)C)c(=O)n(-c2ccccc2)n1C | 0.954 ± 0.035 |
| Oc1c(Cl)cc(Cl)c(Cl)c1Cc1c(O)c(Cl)cc(Cl)c1Cl | 1 ± 0.093 |
| CCOC(=O)C1=C(COCCN)NC(C)=C(C(=O)OC)C1c1ccccc1Cl (stereo not drawn) | 0.992 ± 0.031 |
| COc1ccc(/C=C/C(=O)Nc2ccccc2C(=O)O)cc1OC | 1.05 ± 0.054 |
| CN(C)C(=O)C(CCN1CCC(O)(c2ccc(Cl)cc2)CC1)(c1ccccc1)c1ccccc1 | 0.959 ± 0.047 |
| CC(=O)C1C(=O)C=C(C)OC1=O (stereo not drawn) | 1.12 ± 0.37 |
| Nc1nc2[nH]cnc2c(=S)[nH]1 | 0.63 ± 0.084 |
| O=C1c2c(O)cccc2C([C@@H]2O[C@H](CO)[C@@H](O)[C@H](O)[C@H]2O)c2cc(CO)cc(O)c21 (stereo partly drawn) | 1 ± 0.043 |
| CO/N=C(\C(=O)N[C@@H]1C(=O)N2C(C(=O)O)=C(CSc3nnnn3C)CS[C@H]12)c1csc(N)n1 | 0.0243 ± 0.012 |
| CC(C(=O)O)c1ccc2c(c1)[nH]c1ccc(Cl)cc12 (stereo not drawn) | 1.037 ± 0.0088 |

Molecules listed so far containing two or more sulfur atoms:

| Compound | normalized growth |
| --- | --- |
| NS(=O)(=O)c1cc2c(cc1Cl)NC(C(Cl)Cl)NS2(=O)=O (stereo not drawn) | 0.94 ± 0.12 |
| CO/N=C(\C(=O)N[C@@H]1C(=O)N2C(C(=O)O)=C(CSc3nnnn3C)CS[C@H]12)c1csc(N)n1 | 0.0243 ± 0.012 |

Following part.

| Compound | normalized growth |
| --- | --- |
| C[C@H]1O[C@@H](O[C@H]2[C@@H](O)C[C@H](O[C@H]3[C@@H](O)C[C@H](O[C@H]4CC[C@@]5(C)[C@H](CC[C@@H]6[C@@H]5C[C@@H](O)[C@]5(C)[C@@H](C7=CC(=O)OC7)CC[C@]65O)C4)O[C@@H]3C)O[C@@H]2C)C[C@H](O)[C@@H]1O | 0.981 ± 0.04 |
| CC(C(=O)O)c1ccc(-c2ccccc2)c(F)c1 (stereo not drawn) | 1.14 ± 0.11 |
| COc1cc2c(N3CCN(C(=O)Nc4ccc(OC(C)C)cc4)CC3)ncnc2cc1OCCCN1CCCCC1 | 0.899 ± 0.0095 |
| O=C(OCC(O)CO)c1ccccc1Nc1ccnc2cc(Cl)ccc12 (stereo not drawn) | 0.937 ± 0.18 |
| Cc1c(OCC(F)(F)F)ccnc1C[S@@+]([O-])c1nc2ccccc2[nH]1 | 0.967 ± 0.085 |
| Nc1nc2ccc(OC(F)(F)F)cc2s1 | 1.33 ± 0.093 |
| CN1CCC(=C2c3ccccc3CCc3cccnc32)CC1 | 1.04 ± 0.013 |
| OC[C@H]1O[C@H](O[C@]2(CCl)O[C@H](CCl)[C@@H](O)[C@@H]2O)[C@H](O)[C@@H](O)[C@H]1Cl | 0.769 ± 0.13 |
| CCOC(=O)O[C@]1(C(=O)COC(=O)CC)CC[C@H]2[C@@H]3CCC4=CC(=O)C=C[C@]4(C)[C@H]3[C@@H](O)C[C@@]21C | 1 ± 0.03 |
| O=C(O)c1cc(/N=N/c2ccc(O)c(C(=O)O)c2)ccc1O | 0.998 ± 0.019 |
| CC(=O)NCCCS(=O)(=O)O | 0.949 ± 0.11 |
| COc1ccc2c(c1OC)C(=O)O[C@@H]2[C@H]1c2c(cc3c(c2OC)OCO3)CCN1C | 1.019 ± 0.0086 |
| C=C1c2c(Cl)ccc(O)c2C(=O)C2=C(O)[C@]3(O)C(=O)C(C(N)=O)=C(O)[C@@H](N(C)C)[C@@H]3[C@@H](O)[C@H]12.O=C(O)c1cc(S(=O)(=O)O)ccc1O | 0.0199 ± 0.00036 |
| CC(C)(C)NCC(O)COc1cccc2c1CCC(=O)N2 (stereo not drawn) | 0.905 ± 0.036 |
| CNC[C@H](O)c1ccc(O)c(O)c1 | 1.19 ± 0.046 |
| CC(S)C(=O)NCC(=O)O (stereo not drawn) | 0.982 ± 0.071 |
| COc1ccc(OC)c(C(O)CNC(=O)CN)c1 (stereo not drawn) | 0.885 ± 0.017 |
| CN1CCN(CCCN2c3ccccc3Sc3ccc(C(F)(F)F)cc32)CC1 | 0.892 ± 0.11 |
